# Paper PMC11884657, “Ru(II)-Fenamic-Based Complexes as Promising Human Ovarian Antitumor Agents: DNA Interaction, Cellular Uptake, and Three-Dimensional Spheroid Models” (Inorganic Chemistry, 2025)
# Tests used:
# Details in all cases: selectivity index
# [1] = tested on: MDA-MB-231 (breast) cancer cells; experiment: MTT cytotoxicity assay, MDA-MB-231
# [2] = tested on: A2780 (ovarian) cancer cells; experiment: MTT cytotoxicity assay, A2780
# [3] = tested on: A2780cis (ovarian cisplatin-resistant) cancer cells; experiment: MTT cytotoxicity assay, A2780cis
# A549 (lung) cancer cells = experiment: MTT cytotoxicity assay, A549
SMILES,SI2 = IC50(MRC-5)/IC50(MDA-MB-231) [1],SI3 = IC50(MRC-5)/IC50(A2780) [2],SI4 = IC50(MRC-5)/IC50(A2780cis) [3],SI1 = IC50(MRC-5)/IC50(A549) (A549 (lung) cancer cells)
"[Cl][Ru-4]12([Cl])([n+]3ccccc3-c3cccc[n+]31)[P+](c1ccccc1)(c1ccccc1)CCC[P+]2(c1ccccc1)c1ccccc1 [[RuCl2(bipy)(dppp)], cis-[RuCl2(bipy)(dppp)]]",1.57,1.46,1.15,
"F[P-](F)(F)(F)(F)F.c1ccc(Nc2ccccc2C2=[O+][Ru-4]34([O]2)([n+]2ccccc2-c2cccc[n+]23)[P+](c2ccccc2)(c2ccccc2)CCC[P+]4(c2ccccc2)c2ccccc2)cc1 [complex 1, [Ru(Fen)(bipy)(dppp)]PF6]",0.86,3.74,2.57,0.62
"Cc1cccc(Nc2ccccc2C2=[O+][Ru-4]34([O]2)([n+]2ccccc2-c2cccc[n+]23)[P+](c2ccccc2)(c2ccccc2)CCC[P+]4(c2ccccc2)c2ccccc2)c1C.F[P-](F)(F)(F)(F)F [complex 2, [Ru(MFen)(bipy)(dppp)]PF6]",0.58,2.56,2.09,0.51
"Cc1c(Cl)cccc1Nc1ccccc1C1=[O+][Ru-4]23([O]1)([n+]1ccccc1-c1cccc[n+]12)[P+](c1ccccc1)(c1ccccc1)CCC[P+]3(c1ccccc1)c1ccccc1.F[P-](F)(F)(F)(F)F [complex 3, [Ru(TFen)(bipy)(dppp)]PF6]",0.96,1.59,1.33,0.41
"FC(F)(F)c1cccc(Nc2ccccc2C2=[O+][Ru-4]34([O]2)([n+]2ccccc2-c2cccc[n+]23)[P+](c2ccccc2)(c2ccccc2)CCC[P+]4(c2ccccc2)c2ccccc2)c1.F[P-](F)(F)(F)(F)F [complex 4, [Ru(FFen)(bipy)(dppp)]PF6]",1.86,2.03,1.02,0.63
